Values of other authors, collected in patent US20140100275A1, “METHODS OF ADMINISTERING COMPOSITIONS COMPRISING DOCOSAPENTAENOIC ACID” (Matinas BioPharma, Inc., priority 2012, published 2014).
At least one compound was matched to its structure with a doubt left.

Tests used:
[1] = tested on: patients with very high triglycerides (>500 mg/dL)
[2] = tested on: patients on statin with high triglycerides (TG 200-499 mg/dL)

CC/C=C\C/C=C\C/C=C\C/C=C\C/C=C\CCCC(=O)OCC [Vascepa]
fasting TG (in words) ([1]; four 1-gram capsules, MARINE study): significantly reduced
LDL-C (in words) ([1]; patients with very high triglycerides): slightly and non-significantly changed
LDL-C (in words) ([2]; 4 gr/day, patients on statin therapy with high triglycerides): decreased
fasting TG (in words) ([2]; four 1-gram capsules, ANCHOR study): significantly reduced
reducing non-HDL-cholesterol (comparison in words) ([2]; patients on statin therapy with high triglycerides): more potent
